PubChem BioAssay AID743454 | Peter MacCallum Cancer Centre – 2014

Test: 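Search for knock-downs that restore vorinostat killing in resistant colon cancer cells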 (primary screen)
System: human HCT116-VR colon cancer cells, selected for vorinostat resistance
Reagent: siRNA pool against human genes, 40 nM siRNA pool
Time to read-out: vorinostat for 24 h, read-out about 72 h after transfection
Treatment: vorinostat at 2.5 µM final
Read-out: 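Cell viability by CellTiter-Fluor and caspase 3/7 activity by luminescence, each scaled to mock wells per plate, duplicates averaged, then robust z-scored over all plates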
Reading the numbers: viability robust z-score: higher = more viable cells than screen typical; caspase robust z-score: higher = more caspase 3/7 activity than screen typical
Rule for the call: 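a knock-down is a hit when classed RV1 or RV2 for lowered viability, or CA1 or CA2 for caspase activation; those lethal without drug were dropped; hits were retested singly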
In all, the deposit lists about 18,000 reagents; shown is a part drawn at random. Of all reagents, 450 (2.5%) are marked active. 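Single biological run; no consistent viability z cut-off exists, so the class columns, not z-scores, define the calls.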 A number with no mark means an inactive call.

For OR51A4 (GeneID 401666), what was measured?
viability hit class: no change; caspase hit class: no change; viability robust z-score: -1.25; caspase robust z-score: -1.02

How did the screen score STMN4 (GeneID 81551)?
viability hit class: no change; caspase hit class: no change; viability robust z-score: -1.38; caspase robust z-score: 0.92

With ANGPT1 (GeneID 284), what was measured?
viability hit class: no change (active); caspase hit class: CA2 (caspase activation); viability robust z-score: -2.55; caspase robust z-score: 7.61

With OTOG (GeneID 340990), how do the results read?
viability hit class: no change; caspase hit class: no change; viability robust z-score: -0.47; caspase robust z-score: 0.99

For STX17 (GeneID 55014), what was measured?
viability hit class: no change; caspase hit class: no change; viability robust z-score: 0.26; caspase robust z-score: 1.45

For CCNH (GeneID 902), how do the results read?
viability hit class: no change; caspase hit class: no change; viability robust z-score: 0.69; caspase robust z-score: -0.44

Which result is listed for ABCF2 (GeneID 10061)?
viability hit class: no change; caspase hit class: no change; viability robust z-score: -0.03; caspase robust z-score: -1.08

With PIDD1 (GeneID 55367), what was measured?
viability hit class: no change; caspase hit class: no change; viability robust z-score: -0.18; caspase robust z-score: 1.86

For ARMC12 (GeneID 221481), how do the results read?
viability hit class: no change; caspase hit class: no change; viability robust z-score: -0.74; caspase robust z-score: -0.36

Which result is listed for AKR1C6P (GeneID 389932)?
viability hit class: no change; caspase hit class: no change; viability robust z-score: 0.57; caspase robust z-score: 1.8

With PTCH1 (GeneID 5727), how do the results read?
viability hit class: no change; caspase hit class: no change; viability robust z-score: -0.06; caspase robust z-score: 2.69

What did the screen give for MYH6 (GeneID 4624)?
viability hit class: no change; caspase hit class: no change; viability robust z-score: -0.56; caspase robust z-score: -0.5

For TSPY3 (GeneID 728137), what was measured?
viability hit class: no change; caspase hit class: no change; viability robust z-score: 0.8; caspase robust z-score: 0.64

What is on record for EBF3 (GeneID 253738)?
viability hit class: no change; caspase hit class: no change; viability robust z-score: 0.86; caspase robust z-score: -0.54

Entries listed so far with an active call (1):
ANGPT1 (GeneID 284): viability hit class = no change (active); caspase hit class = CA2 (caspase activation); viability robust z-score = -2.55; caspase robust z-score = 7.61
